The other results are listed elsewhere or left out.
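Also: competitive chemoproteomic profiling in live THP-1 cells with an iodoacetamide desthiobiotin (IA-DTB) probe, comparing probe-labelled peptide intensities in compound-treated cells against DMSO-treated controls.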

Protein sequences, listed by entry. Tags and fused reporters are not part of them. Lines headed by an entry give the natural chain unless they say otherwise; changes in a name come on top.
UniProt Q9NQT8: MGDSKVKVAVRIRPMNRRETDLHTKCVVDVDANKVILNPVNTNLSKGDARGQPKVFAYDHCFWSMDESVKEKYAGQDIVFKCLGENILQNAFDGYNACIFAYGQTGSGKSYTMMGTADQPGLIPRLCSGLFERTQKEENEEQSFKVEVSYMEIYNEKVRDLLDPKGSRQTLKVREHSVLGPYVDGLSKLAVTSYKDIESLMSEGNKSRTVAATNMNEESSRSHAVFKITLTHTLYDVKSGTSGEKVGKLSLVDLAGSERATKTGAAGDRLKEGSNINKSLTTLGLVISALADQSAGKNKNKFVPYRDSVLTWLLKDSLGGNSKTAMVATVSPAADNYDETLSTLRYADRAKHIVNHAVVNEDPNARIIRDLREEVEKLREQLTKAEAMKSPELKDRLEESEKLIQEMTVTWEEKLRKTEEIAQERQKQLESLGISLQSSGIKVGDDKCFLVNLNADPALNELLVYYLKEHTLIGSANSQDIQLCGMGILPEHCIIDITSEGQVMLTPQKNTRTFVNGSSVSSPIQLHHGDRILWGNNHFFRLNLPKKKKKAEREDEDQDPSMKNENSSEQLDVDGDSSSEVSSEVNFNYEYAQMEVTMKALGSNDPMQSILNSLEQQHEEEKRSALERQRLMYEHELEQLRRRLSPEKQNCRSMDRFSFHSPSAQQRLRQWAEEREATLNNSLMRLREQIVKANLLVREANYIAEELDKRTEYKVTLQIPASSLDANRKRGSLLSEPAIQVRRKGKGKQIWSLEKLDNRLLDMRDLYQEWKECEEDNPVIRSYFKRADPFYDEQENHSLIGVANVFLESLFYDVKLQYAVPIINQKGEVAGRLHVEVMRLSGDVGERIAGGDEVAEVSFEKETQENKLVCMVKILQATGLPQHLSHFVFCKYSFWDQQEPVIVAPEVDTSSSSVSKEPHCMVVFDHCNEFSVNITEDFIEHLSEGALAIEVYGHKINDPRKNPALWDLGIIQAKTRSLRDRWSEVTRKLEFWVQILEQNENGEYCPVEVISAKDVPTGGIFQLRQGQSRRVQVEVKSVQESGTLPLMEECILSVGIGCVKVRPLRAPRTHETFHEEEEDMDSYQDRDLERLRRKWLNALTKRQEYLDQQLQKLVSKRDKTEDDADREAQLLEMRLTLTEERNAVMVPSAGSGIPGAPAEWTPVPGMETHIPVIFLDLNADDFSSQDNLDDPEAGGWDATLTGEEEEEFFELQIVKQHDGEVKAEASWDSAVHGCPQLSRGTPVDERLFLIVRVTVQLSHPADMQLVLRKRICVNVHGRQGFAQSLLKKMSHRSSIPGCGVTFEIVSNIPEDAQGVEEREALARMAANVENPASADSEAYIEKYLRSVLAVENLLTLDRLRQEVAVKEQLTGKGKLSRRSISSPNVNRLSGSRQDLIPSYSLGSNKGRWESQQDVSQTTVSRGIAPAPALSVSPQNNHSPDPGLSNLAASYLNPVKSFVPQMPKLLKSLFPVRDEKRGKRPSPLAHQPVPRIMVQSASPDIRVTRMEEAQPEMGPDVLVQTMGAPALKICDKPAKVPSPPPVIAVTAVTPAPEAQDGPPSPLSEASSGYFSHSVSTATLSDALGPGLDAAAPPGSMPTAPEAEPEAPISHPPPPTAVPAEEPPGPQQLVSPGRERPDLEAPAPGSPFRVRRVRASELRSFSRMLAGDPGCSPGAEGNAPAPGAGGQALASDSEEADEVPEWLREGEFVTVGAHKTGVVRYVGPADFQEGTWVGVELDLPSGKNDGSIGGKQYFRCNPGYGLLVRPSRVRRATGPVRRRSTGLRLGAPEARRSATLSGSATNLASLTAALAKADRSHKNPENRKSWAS
UniProt Q9BVA0, whole entry, looked up: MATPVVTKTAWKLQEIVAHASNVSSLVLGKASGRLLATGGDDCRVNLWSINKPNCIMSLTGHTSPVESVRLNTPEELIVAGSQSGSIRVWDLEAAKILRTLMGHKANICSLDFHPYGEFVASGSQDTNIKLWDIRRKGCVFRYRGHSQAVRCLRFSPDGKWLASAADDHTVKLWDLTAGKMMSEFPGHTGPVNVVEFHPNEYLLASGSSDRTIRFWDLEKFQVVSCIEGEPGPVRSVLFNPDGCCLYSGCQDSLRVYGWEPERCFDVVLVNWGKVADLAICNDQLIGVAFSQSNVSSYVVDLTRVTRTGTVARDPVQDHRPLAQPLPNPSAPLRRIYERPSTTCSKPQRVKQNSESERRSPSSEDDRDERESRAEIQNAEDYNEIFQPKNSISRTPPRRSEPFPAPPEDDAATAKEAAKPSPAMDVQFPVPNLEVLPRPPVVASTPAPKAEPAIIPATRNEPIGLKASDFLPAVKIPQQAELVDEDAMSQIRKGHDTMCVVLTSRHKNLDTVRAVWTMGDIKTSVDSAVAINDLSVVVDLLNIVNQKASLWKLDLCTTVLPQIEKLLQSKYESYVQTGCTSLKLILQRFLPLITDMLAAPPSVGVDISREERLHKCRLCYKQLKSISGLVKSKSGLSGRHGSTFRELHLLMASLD
UniProt Q9H7Z6: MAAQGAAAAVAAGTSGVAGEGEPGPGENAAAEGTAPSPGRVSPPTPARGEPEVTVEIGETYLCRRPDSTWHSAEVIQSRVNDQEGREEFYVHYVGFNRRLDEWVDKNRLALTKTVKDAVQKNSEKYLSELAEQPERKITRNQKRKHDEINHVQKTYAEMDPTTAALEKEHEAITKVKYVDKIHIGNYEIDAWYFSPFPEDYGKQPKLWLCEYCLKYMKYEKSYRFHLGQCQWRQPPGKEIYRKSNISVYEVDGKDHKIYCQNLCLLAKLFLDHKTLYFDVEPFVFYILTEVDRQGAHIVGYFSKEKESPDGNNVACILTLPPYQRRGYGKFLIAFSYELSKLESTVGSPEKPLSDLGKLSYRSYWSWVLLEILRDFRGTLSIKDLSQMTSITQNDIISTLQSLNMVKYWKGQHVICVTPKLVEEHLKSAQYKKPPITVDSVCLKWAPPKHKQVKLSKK
UniProt Q7LBC6: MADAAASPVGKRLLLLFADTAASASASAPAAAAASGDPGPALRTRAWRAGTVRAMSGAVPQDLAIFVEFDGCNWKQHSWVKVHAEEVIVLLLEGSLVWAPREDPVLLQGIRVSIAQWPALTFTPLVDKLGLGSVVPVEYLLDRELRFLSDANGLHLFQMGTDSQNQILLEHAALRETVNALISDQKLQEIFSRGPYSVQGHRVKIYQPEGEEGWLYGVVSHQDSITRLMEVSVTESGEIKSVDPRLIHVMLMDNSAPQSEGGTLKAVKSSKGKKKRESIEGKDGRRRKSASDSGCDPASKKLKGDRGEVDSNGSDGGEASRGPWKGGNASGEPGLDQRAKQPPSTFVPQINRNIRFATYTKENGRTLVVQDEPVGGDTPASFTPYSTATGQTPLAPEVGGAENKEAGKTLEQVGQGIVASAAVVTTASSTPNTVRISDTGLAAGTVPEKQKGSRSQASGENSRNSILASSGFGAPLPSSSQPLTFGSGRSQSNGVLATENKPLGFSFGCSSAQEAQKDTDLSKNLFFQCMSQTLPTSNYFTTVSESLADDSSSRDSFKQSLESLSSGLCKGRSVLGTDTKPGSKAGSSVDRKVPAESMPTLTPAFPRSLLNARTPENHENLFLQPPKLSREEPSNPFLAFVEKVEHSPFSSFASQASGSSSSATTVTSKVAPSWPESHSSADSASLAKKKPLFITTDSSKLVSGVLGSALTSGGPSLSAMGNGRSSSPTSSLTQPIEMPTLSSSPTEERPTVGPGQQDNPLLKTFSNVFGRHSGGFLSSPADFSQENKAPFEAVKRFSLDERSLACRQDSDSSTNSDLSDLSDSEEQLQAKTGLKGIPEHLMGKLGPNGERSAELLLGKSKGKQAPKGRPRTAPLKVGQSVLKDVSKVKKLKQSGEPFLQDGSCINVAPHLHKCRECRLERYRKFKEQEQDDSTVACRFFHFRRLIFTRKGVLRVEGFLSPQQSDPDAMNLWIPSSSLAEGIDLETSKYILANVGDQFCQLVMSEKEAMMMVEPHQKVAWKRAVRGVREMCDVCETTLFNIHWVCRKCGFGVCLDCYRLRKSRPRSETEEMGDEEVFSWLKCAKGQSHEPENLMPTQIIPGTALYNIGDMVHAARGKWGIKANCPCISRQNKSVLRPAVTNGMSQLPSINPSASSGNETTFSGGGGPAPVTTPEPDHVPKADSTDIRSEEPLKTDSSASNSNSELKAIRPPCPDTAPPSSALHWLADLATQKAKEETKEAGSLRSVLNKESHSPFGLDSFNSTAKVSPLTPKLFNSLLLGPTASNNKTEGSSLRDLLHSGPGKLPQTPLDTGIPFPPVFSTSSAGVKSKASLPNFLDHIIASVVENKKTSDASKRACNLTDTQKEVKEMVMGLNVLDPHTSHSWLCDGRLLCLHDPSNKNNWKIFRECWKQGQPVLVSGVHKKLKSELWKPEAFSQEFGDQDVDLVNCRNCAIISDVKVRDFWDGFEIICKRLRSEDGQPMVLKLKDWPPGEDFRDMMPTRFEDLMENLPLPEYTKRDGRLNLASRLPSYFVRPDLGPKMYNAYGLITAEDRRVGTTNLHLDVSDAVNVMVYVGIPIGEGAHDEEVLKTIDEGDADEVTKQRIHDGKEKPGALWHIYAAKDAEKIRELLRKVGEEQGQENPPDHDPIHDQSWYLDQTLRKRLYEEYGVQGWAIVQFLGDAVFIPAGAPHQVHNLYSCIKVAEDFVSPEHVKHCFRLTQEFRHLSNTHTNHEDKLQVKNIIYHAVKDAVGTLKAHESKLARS
UniProt P52732: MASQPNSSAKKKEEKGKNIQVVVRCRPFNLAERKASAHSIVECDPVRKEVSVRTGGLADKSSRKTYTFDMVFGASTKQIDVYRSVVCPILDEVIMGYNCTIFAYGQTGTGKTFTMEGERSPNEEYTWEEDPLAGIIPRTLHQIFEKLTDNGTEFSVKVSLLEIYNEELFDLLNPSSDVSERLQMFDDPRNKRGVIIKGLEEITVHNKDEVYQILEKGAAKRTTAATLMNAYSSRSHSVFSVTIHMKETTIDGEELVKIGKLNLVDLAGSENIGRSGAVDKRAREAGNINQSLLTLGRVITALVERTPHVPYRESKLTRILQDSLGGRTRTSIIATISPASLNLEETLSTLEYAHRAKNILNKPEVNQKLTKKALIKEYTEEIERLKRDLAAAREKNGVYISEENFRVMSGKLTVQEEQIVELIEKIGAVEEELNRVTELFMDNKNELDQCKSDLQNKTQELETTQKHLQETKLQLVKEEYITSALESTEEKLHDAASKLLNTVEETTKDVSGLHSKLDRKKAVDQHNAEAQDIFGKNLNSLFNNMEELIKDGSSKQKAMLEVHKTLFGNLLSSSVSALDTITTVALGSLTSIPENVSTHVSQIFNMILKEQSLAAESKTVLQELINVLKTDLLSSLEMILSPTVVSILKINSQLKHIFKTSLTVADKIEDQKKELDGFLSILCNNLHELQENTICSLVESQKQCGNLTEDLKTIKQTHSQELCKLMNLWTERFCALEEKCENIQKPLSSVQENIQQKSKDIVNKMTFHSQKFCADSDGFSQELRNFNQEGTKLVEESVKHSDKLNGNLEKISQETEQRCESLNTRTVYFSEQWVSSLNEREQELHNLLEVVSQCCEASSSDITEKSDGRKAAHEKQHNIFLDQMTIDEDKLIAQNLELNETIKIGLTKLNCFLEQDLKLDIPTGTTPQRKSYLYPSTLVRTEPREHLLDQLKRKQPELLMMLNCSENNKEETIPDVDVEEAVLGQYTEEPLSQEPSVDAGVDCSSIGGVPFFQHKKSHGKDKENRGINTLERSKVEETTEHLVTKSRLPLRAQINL
UniProt Q15046, whole entry, looked up: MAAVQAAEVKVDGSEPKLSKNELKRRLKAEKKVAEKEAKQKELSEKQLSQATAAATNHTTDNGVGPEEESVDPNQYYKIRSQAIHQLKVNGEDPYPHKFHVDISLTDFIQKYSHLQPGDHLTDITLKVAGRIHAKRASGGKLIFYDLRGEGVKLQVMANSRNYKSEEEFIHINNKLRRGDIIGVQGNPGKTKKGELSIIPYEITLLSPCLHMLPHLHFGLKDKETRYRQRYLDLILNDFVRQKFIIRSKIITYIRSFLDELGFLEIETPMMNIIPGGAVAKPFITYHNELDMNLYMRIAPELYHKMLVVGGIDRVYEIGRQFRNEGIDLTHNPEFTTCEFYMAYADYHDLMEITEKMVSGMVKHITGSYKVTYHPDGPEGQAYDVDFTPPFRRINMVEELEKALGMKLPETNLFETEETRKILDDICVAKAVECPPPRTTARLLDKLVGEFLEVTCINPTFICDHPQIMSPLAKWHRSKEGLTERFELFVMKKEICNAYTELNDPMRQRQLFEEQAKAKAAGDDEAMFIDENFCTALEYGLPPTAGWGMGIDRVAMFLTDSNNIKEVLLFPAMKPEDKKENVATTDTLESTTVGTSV

Compound in this assay: CC1Cc2ccccc2N1C(=O)C1CCCN(C1)C(=O)CCl (mixture of isomers) [TRIM25 ligand 11 (diastereomer mixture)]
Nature of the assay: probe-labelled cysteine peptide fold change vs DMSO (competition) (log2 fold change); higher = less target engagement (more negative = stronger competition). Conditions: 50 µM; THP-1; incubation time: 4 h.
With “ITPR1_Q14643_1471_ACNNTSDR (UniProt Q14643)”, the “probe-labelled cysteine peptide fold change” value turned out to be 0.496.

Consider “KANSL3_Q9P2N6_161_LANEGACNEPVLR (UniProt Q9P2N6)”, for which the “probe-labelled cysteine peptide fold change” value is -0.297.

With “KIF13B_Q9NQT8_773_DLYQEWKECEEDNPVIR (UniProt Q9NQT8)”, the “probe-labelled cysteine peptide fold change” value was -0.101.

Take “KIF1B_O60333_356_CNAVINEDPNAK (UniProt O60333)”: the “probe-labelled cysteine peptide fold change” value was -0.0966.

For the target “KATNB1_Q9BVA0_499_GHDTMCVVLTSR (UniProt Q9BVA0)”, the “probe-labelled cysteine peptide fold change” value is 0.15.

“KIF13B_Q9NQT8_870_LVCMVK (UniProt Q9NQT8)”: the “probe-labelled cysteine peptide fold change” value is 0.216.

For the target “KAT8_Q9H7Z6_230_FHLGQCQWR (UniProt Q9H7Z6)”, the “probe-labelled cysteine peptide fold change” value is -0.137.

Consider “KDM4A_O75164_917_FYQCEVVR (UniProt O75164)”, for which the “probe-labelled cysteine peptide fold change” value stood at 0.422.

Turning to “KAT5_Q92993_234_NIECIELGR (UniProt Q92993)”, the “probe-labelled cysteine peptide fold change” value is -0.0658.

“ITPR1_Q14643_1439_IAYINFLNHCYVDTEVEMK (UniProt Q14643)”: the “probe-labelled cysteine peptide fold change” value was 0.125.

As for “JAK1_P23458_731_EGIDSECGPFIK (UniProt P23458)”, the “probe-labelled cysteine peptide fold change” value is -0.156.

“KDM3B_Q7LBC6_1470_VRDFWDGFEIICK (UniProt Q7LBC6)”: the “probe-labelled cysteine peptide fold change” value is -0.132.

For the target “KDM3A_Q9Y4C1_497_VDNESCCSR (UniProt Q9Y4C1)”, the “probe-labelled cysteine peptide fold change” value is 0.258.

On to “KDM2A_Q9Y2K7_1104_YSLTELNMAGCNK (UniProt Q9Y2K7)”, for which the “probe-labelled cysteine peptide fold change” value worked out at 0.239.

On to “KIF18B_Q86Y91_437_SGPPPEHLPSSPLPPHPPSQPCTPELPAGPR (UniProt Q86Y91)”, for which the “probe-labelled cysteine peptide fold change” value was -0.207.

With “KIF11_P52732_43_ASAHSIVECDPVRK (UniProt P52732)”, the “probe-labelled cysteine peptide fold change” value is -0.1.

“KIDINS220_Q9ULH0_867_FLVTSATNGDVPCSDTTGIQEDADRR (UniProt Q9ULH0)”: the “probe-labelled cysteine peptide fold change” value was -0.0906.

Turning to “KBTBD11_O94819_257_DAAYCFMSDHYLEVLREPAVFGR (UniProt O94819)”, the “probe-labelled cysteine peptide fold change” value is -0.0776.

For the target “IWS1_Q96ST2_749_ALRPGDPGFCAR (UniProt Q96ST2)”, the “probe-labelled cysteine peptide fold change” value was -0.215.

Take “JAK2_O60674_961_LLQYTSQICK (UniProt O60674)”: the “probe-labelled cysteine peptide fold change” value turned out to be 0.0718.

Turning to “KIAA0930_Q6ICG6_119_LDYMVTCAVCTR (UniProt Q6ICG6)”, the “probe-labelled cysteine peptide fold change” value turned out to be 0.186.

With “KDM5A_P29375_709_LVCLYHPTDLCPCPMQK (UniProt P29375)”, the “probe-labelled cysteine peptide fold change” value was -0.042.

Consider “KATNB1_Q9BVA0_43_LLATGGDDCR (UniProt Q9BVA0)”, for which the “probe-labelled cysteine peptide fold change” value amounted to 0.0582.

With “KDM3B_Q7LBC6_937_FKEQEQDDSTVACR (UniProt Q7LBC6)”, the “probe-labelled cysteine peptide fold change” value was 0.00347.

As to “KIF11_P52732_740_CENIQK (UniProt P52732)”, the “probe-labelled cysteine peptide fold change” value was -0.00613.

With “KARS_Q15046_456+463_LVGEFLEVTCINPTFICDHPQIMSPLAK (UniProt Q15046)”, the “probe-labelled cysteine peptide fold change” value is -0.0667.

In the case of “KANK2_Q63ZY3_562_QECQLSR (UniProt Q63ZY3)”, the “probe-labelled cysteine peptide fold change” value is -0.0158.

Take “KIF14_Q15058_1418_AASVQEEFMDAVCDGVGLGMK (UniProt Q15058)”: the “probe-labelled cysteine peptide fold change” value is 0.116.

For “IVNS1ABP_Q9Y6Y0_52_AVLACCSPYLFEIFNSDSDPHGISHVK (UniProt Q9Y6Y0)”, the “probe-labelled cysteine peptide fold change” value was 0.201.

In the case of “KAT8_Q9H7Z6_416_GQHVICVTPK (UniProt Q9H7Z6)”, the “probe-labelled cysteine peptide fold change” value was 0.085.

“KIF1BP_Q96EK5_371_AVQFGTGELCDAISAVEEK (UniProt Q96EK5)”: the “probe-labelled cysteine peptide fold change” value is -0.0878.

With “KDELC2_Q7Z4H8_495+497_DGMELVPQPEDSTAICQCHR (UniProt Q7Z4H8)”, the “probe-labelled cysteine peptide fold change” value was -0.171.

Regarding “KARS_Q15046_209_KGELSIIPYEITLLSPCLHMLPHLHFGLK (UniProt Q15046)”, the “probe-labelled cysteine peptide fold change” value was -0.0518.

For “KAT6A_Q92794_508_CPSVIEFGK (UniProt Q92794)”, the “probe-labelled cysteine peptide fold change” value turned out to be 0.0762.

In the case of “KDM3B_Q7LBC6_904_QSGEPFLQDGSCINVAPHLHK (UniProt Q7LBC6)”, the “probe-labelled cysteine peptide fold change” value was -0.0166.

“KARS_Q15046_427_KILDDICVAK (UniProt Q15046)”: the “probe-labelled cysteine peptide fold change” value was -0.48.
